Patent US20260243940A1, “COMPOUND, POLYMERIZABLE COMPOSITION, CURED PRODUCT, OPTICAL FILM, POLARIZING PLATE, AND IMAGE DISPLAY DEVICE” (FUJIFILM Corporation, priority 2019, published 2026)
Some results were stated once for a whole list of compounds, not compound by compound.

Key:
[1] = Precipitation suppression (recrystallization temperature on cooling, hot stage under polarizing microscope); format: physicochemical; settings: summary of Table 3
Procedure: Two polarizers of an optical microscope (ECLIPSE E600 POL, manufactured by Nikon Corporation) were arranged so that they were orthogonal to each other, and a sample stand was set between the two polarizers.
Then, a small amount of each synthesized compound was placed on a slide glass, and the slide glass was set on a hot stage placed on a sample stand. While observing the state of the sample with a microscope, the temperature of the hot stage was raised at 5° C./min, and the type of liquid crystal phase and the temperature at which phase transition occurred were recorded from the state of the sample.
In addition, for the recrystallization temperature, the temperature was elevated up to an isotropic phase and then lowered at 5° C./min, and a temperature at which crystals were precipitated was recorded.
Based on the results of the recrystallization temperature measured by the above-mentioned method for evaluating the phase transition temperature, the evaluation was made according to the following standard. The results are shown in Table 3 below. • A: Lower than 50° C. • B: 50° C. or higher and 100° C. or lower • C: Higher than 100° C. and 150° C. or lower • D: Higher than 150° C. and 180° C. or lower

[2] = Solubility in cyclopentanone; format: physicochemical; settings: summary of Table 3
Procedure: Cyclopentanone was added to 25 mg of each synthesized compound so that the concentration of each compound was 40% by mass, and the mixture was heated and stirred at 50° C. for 1 minute.
Then, the mixture was left to stand at 20° C. for 10 minutes, and in a case where there is no undissolved residue or precipitation, it is determined that the mixture can be dissolved at 40% by mass.
In a case where there was an undissolved residue or precipitation, cyclopentanone was further added to the mixture to reduce the concentration by 5% by mass, an operation of heating and stirring at 50° C. for 1 minute and then leaving the mixture stand at 20° C. for 10 minutes was repeatedly performed until there was no undissolved residue or precipitation, thereby confirming the solubility.

C=CC(=O)OCCCCOC(=O)C1CCC(C2CCC(C(=O)Oc3ccc(OC(=O)C4CCC(C5CCC(C(=O)OCCCCOC(=O)C=C)CC5)CC4)c4ccccc34)CC2)CC1 (stereo not shown) [Compound 1-1]
precipitation suppression (in words) [1]: excellent
solubility (in words) [2]: excellent

C=CC(=O)OCCCCOC(=O)C1CCC(C2CCC(C(=O)Oc3cc(C)c(OC(=O)C4CCC(C5CCC(C(=O)OCCCCOC(=O)C=C)CC5)CC4)c4ccccc34)CC2)CC1 (stereo not shown) [Compound 1-2]
precipitation suppression (in words) [1]: excellent

C=CC(=O)OCCCCOC(=O)C1CCC(C2CCC(C(=O)Oc3ccc(OC(=O)C4CCC(C5CCC(C(=O)OCCCCOC(=O)C=C)CC5)CC4)c4c(OCC)cccc34)CC2)CC1 (stereo not shown) [Compound 1-8]
precipitation suppression (in words) [1]: excellent

C=CC(=O)OCCCCOC(=O)C1CCC(C2CCC(C(=O)Oc3ccc(OC(=O)C4CCC(C5CCC(C(=O)OCCCCOC(=O)C=C)CC5)CC4)c4c(OCCCC)cccc34)CC2)CC1 (stereo not shown) [Compound 1-9]
precipitation suppression (in words) [1]: excellent

C=CC(=O)OCCCCOC(=O)C1CCC(C2CCC(C(=O)Oc3ccc(OC(=O)C4CCC(C5CCC(C(=O)OCCCCOC(=O)C=C)CC5)CC4)c4c(OCCCCCCCC)cccc34)CC2)CC1 (stereo not shown) [Compound 1-10]
precipitation suppression (in words) [1]: excellent

C=CC(=O)OCCCCOC(=O)C1CCC(C2CCC(C(=O)Oc3ccc(OC(=O)C4CCC(C5CCC(C(=O)OCCCCOC(=O)C=C)CC5)CC4)c4c(OC(C)=O)cccc34)CC2)CC1 (stereo not shown) [Compound 1-11]
precipitation suppression (in words) [1]: excellent

C=C(C)C(=O)OCCCCOC(=O)C1CCC(C2CCC(C(=O)Oc3ccc(OC(=O)C4CCC(C5CCC(C(=O)OCCCCOC(=O)C(=C)C)CC5)CC4)c4c(OC(C)=O)cccc34)CC2)CC1 (stereo not shown) [Compound 1-12]
precipitation suppression (in words) [1]: excellent

C=CC(=O)OCCOC(=O)C1CCC(C2CCC(C(=O)Oc3ccc(OC(=O)C4CCC(C5CCC(C(=O)OCCOC(=O)C=C)CC5)CC4)c4c(OC(C)=O)cccc34)CC2)CC1 (stereo not shown) [Compound 1-13]
precipitation suppression (in words) [1]: excellent

C=CC(=O)OCCOCCOCCOC(=O)C1CCC(C2CCC(C(=O)Oc3ccc(OC(=O)C4CCC(C5CCC(C(=O)OCCOCCOCCOC(=O)C=C)CC5)CC4)c4c(OC(C)=O)cccc34)CC2)CC1 (stereo not shown) [Compound 1-15]
precipitation suppression (in words) [1]: excellent

C=CC(=O)OCCCCOC(=O)C1CCC(C2CCC(C(=O)Oc3ccc(OC(=O)C4CCC(C5CCC(C(=O)OCCCCOC(=O)C=C)CC5)CC4)c4c(OCC)ccc(OCC)c34)CC2)CC1 (stereo not shown) [Compound 1-16]
precipitation suppression (in words) [1]: excellent
solubility (in words) [2]: excellent

C=CC(=O)OCCCCOC(=O)C1CCC(C2CCC(C(=O)Oc3ccc(OC(=O)C4CCC(C5CCC(C(=O)OCCCCOC(=O)C=C)CC5)CC4)c4c(OC(C)=O)ccc(OC(C)=O)c34)CC2)CC1 (stereo not shown) [Compound 1-17]
precipitation suppression (in words) [1]: excellent
solubility (in words) [2]: excellent

C=CC(=O)OCCCCOC(=O)C1CCC(OC(=O)C2CCC(C(=O)Oc3ccc(OC(=O)C4CCC(C(=O)OC5CCC(C(=O)OCCCCOC(=O)C=C)CC5)CC4)c4ccccc34)CC2)CC1 (stereo not shown) [Compound 2-1]
precipitation suppression (in words) [1]: excellent
solubility (in words) [2]: excellent

C=CC(=O)OCCCCOC(=O)C1CCC(C2CCC(C(=O)Oc3ccc(OC(=O)C4CCC(C5CCC(C(=O)OCCCCOC(=O)C=C)CC5)CC4)c4c(OS(C)(=O)=O)cccc34)CC2)CC1 (stereo not shown) [Compound 2-3]
precipitation suppression (in words) [1]: excellent

C=CC(=O)OCCCCOC(=O)C1CCC(C2CCC(C(=O)Oc3ccc(OC(=O)C4CCC(C5CCC(C(=O)OCCCCOC(=O)C=C)CC5)CC4)c4c(OC(=O)CCl)cccc34)CC2)CC1 (stereo not shown) [Compound 2-4]
precipitation suppression (in words) [1]: excellent
solubility (in words) [2]: excellent
